The source of these data is article PMC13448217.

Protein sequences, listed by entry. Tags and fused reporters are not part of them. Lines headed by an entry give the natural chain unless they say otherwise; changes in a name come on top.
UniProt Q8IE50: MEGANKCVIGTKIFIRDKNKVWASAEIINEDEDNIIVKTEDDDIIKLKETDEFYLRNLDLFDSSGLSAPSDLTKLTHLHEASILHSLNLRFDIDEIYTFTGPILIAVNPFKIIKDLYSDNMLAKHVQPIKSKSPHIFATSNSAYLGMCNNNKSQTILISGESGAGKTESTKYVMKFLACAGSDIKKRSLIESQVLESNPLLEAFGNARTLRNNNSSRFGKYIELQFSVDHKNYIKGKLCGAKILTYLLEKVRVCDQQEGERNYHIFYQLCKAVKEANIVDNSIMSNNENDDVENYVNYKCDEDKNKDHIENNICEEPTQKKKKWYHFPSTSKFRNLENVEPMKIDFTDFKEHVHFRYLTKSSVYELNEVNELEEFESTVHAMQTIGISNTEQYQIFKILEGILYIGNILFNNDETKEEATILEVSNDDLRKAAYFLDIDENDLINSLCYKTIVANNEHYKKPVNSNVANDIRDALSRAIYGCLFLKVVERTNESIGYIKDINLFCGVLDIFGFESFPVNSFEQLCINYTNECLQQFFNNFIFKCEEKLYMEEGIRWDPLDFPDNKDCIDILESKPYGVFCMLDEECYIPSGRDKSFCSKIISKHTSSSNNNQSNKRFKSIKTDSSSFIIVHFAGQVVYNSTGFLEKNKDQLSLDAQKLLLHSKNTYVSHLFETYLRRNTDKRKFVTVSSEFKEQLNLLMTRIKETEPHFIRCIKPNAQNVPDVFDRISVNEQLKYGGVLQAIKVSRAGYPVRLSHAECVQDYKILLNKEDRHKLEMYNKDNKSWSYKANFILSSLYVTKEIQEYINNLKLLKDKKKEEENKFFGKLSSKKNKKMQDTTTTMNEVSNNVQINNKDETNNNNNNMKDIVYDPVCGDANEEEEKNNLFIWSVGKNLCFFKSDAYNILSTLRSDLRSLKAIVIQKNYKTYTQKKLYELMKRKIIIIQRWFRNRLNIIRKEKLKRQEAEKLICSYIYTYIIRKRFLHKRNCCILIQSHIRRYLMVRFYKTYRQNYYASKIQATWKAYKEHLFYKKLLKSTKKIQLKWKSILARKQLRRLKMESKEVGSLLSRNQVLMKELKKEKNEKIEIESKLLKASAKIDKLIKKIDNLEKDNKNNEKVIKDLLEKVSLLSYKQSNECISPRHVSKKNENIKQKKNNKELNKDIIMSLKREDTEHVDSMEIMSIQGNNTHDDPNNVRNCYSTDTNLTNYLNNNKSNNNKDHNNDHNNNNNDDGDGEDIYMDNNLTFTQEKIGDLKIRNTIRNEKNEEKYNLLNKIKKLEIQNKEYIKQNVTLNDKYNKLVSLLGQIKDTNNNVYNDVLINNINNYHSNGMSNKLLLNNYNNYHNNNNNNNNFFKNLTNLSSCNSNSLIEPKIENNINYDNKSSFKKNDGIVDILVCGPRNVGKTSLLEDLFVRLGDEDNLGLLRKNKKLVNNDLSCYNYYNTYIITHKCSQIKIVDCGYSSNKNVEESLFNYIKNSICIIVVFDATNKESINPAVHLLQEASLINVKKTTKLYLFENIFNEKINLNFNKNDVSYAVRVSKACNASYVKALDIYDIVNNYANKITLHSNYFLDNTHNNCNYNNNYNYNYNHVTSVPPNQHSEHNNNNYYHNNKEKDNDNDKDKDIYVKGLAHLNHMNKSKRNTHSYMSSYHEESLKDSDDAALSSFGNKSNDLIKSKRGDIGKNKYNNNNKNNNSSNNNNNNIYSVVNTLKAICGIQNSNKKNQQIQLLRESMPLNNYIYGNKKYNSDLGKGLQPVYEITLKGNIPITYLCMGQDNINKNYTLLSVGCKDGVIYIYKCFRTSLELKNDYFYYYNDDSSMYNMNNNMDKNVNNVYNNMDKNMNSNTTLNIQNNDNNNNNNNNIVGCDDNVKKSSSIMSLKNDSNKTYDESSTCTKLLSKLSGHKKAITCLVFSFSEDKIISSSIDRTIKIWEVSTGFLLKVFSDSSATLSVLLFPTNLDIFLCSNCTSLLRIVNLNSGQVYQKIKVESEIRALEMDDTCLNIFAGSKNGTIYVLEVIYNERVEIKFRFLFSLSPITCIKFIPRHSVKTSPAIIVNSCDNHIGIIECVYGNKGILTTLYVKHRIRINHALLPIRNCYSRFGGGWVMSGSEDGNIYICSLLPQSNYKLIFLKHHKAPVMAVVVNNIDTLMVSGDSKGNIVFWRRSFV
UniProt C6KT34: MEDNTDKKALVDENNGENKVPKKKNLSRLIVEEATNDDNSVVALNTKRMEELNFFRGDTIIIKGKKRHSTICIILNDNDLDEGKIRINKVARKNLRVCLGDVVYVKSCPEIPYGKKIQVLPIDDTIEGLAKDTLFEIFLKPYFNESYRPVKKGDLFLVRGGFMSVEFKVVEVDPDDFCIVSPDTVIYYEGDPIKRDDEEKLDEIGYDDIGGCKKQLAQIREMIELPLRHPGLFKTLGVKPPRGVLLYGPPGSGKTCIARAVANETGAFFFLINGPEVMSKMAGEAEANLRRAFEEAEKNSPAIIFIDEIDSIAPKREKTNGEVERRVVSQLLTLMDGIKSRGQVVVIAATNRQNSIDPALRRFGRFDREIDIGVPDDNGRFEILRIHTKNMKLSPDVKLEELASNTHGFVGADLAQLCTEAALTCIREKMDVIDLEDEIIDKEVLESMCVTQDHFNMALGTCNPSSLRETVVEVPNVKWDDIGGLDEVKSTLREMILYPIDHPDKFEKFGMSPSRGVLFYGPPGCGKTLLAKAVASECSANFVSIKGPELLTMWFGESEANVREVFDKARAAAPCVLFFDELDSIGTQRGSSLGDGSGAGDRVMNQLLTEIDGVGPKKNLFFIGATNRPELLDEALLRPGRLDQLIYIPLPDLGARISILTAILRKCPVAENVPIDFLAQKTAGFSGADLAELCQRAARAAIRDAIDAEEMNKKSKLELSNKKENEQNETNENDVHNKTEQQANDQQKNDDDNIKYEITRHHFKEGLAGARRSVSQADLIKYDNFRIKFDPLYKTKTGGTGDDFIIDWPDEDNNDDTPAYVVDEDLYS

For the experiment, the target named is endogenous PfMyoF (P. falciparum (endogenous in 3D7 parasites)) (UniProt Q8IE50). Briefly: affinity purification with mass spectrometry; co-immunoprecipitation from late trophozoite lysate with polyclonal α-PfMyoF and Protein A beads, pre-immune serum as control; 50 mM Tris pH 7.4, 150 mM NaCl, 5 mM MgCl2, 1% NP-40, 5 mM ATP, 4 °C; hits enriched ≥5-fold by iBAQ; three replicates.

Results are given in words; binding and its absence hold for the method and conditions named. Binding seen in cells or lysates may run through a third protein. These calls come from enrichment with a bait or labelling near it, and not all partners need be listed.

In the case of PF3D7_0619400 (from UniProt C6KT34), the binding entry is given as “binds”.

B1: PfRab18 (protein, UniProt Q8T324 1-201)
chain: MKNKNKYDYLLKLLLVGDSSVGKSSILCRYSDNQFEEKVLSTIGIDFKVKYLKIDNKTIKVGIWDTAGQERFRTLTSAYYRNAHAIILVYDCTVRESFENLDVWINEIDKYSTNKNAIKMLVANKIDKPNHEVTKDEGKNFAFENNMLFCETSAKNDINITYCFEELIQQILNNPSLLELSIVTKNLKLGKKEESRSNCAC
For B1, the binding result is “binds”.

B2: SEY1 (protein, UniProt Q8ILT5 1-937)
chain: MEKGVEKTQIIDYDGNVIEDLKEWMIDNKLNDLGFSYNVIAVLGSQSSGKSTLLNNLFKTSFDVMNTKQGHSQTTKGLWLSYDKFDDETNNSSSFFKLKKKNKPTLILDVEGTDSKERGDNRLTFEHRSALFCLALADCVIVNLWYHSLGNFTASNYGLLKTVMEVNLELFQQEKNSPKTILLFTVRDWFEEFAPIEVVRNKILDEYINKIWKEMKKPKEAEKLNINNFFIIEVVGLSHGIIKKEDFLKDVNNLRDKWINNLRPSKYSRNIPSDGFAQYCNNIWNTIVKQSQLDIPSQKEMLSTFRCQEIKNNVINNINKEIKEKSIESHNKVIENFKEWAEKNIIQKCLDDYFKDASRYKENICLRTSQELLDYLFTQLQAIVDNNLQYIQRTLCTKFFNELSNMYKICTIEKNTFSFSRDSNLKTVKDNNKNTSHEDIKRDLLNNNQDKCVHLWSNFLYNADKLEYFTFCNFYENYEKSNIEIKTNMKNDDNLKNDDNLKNDAHNNITTHQFNYKPTLSVLSTSIYKDSNRIRNIQCGILLNKTRQTIKNSFKNMDTYLLTTKNTEEYWNNTVQLVLKLQDNINTHLTKCFINLKGTNHNNLNIYNDDMMYNNDDMVFNNNDDDDNNNNNNNNNYYYYNKNDDANLSKDENYNNKFSFSLTNEKGIFQNINNNNEGSDEICYTNALKKIDLIKNKQVYKSTINEDINNKLQNKKYIHELKNYYLDEIMDVLKNKLDEISENLATIIIQRFESVFNYDEYEQPRQWRDISMAELKKIFLKSKNYAFLIIDILQKNIKVELIDDYLPNNFIKDEIIEKGKIKAKRRIQEICRDAQYIQETGSKMSLKNVPVVFWIILLLFGWNEILFFIRMFFKLNVILPLFFAAAFIVSTFVYNGNTQALSYINKIIFYMAKNSYNFFKHIQAISNPPPKNVQKQE
For the molecule B2, the binding entry is given as “binds”.
